# Results reported in the supplement of paper PMC12067093, “Discovery and optimisation of a covalent ligand for TRIM25 and its application to targeted protein ubiquitination” (Chemical Science, 2025).
# The chains behind the UniProt entries cited, without tags or fusion partners. Where a name states a change or a piece, a line headed by the entry shows the natural chain unless it says otherwise.
# UniProt Q14669: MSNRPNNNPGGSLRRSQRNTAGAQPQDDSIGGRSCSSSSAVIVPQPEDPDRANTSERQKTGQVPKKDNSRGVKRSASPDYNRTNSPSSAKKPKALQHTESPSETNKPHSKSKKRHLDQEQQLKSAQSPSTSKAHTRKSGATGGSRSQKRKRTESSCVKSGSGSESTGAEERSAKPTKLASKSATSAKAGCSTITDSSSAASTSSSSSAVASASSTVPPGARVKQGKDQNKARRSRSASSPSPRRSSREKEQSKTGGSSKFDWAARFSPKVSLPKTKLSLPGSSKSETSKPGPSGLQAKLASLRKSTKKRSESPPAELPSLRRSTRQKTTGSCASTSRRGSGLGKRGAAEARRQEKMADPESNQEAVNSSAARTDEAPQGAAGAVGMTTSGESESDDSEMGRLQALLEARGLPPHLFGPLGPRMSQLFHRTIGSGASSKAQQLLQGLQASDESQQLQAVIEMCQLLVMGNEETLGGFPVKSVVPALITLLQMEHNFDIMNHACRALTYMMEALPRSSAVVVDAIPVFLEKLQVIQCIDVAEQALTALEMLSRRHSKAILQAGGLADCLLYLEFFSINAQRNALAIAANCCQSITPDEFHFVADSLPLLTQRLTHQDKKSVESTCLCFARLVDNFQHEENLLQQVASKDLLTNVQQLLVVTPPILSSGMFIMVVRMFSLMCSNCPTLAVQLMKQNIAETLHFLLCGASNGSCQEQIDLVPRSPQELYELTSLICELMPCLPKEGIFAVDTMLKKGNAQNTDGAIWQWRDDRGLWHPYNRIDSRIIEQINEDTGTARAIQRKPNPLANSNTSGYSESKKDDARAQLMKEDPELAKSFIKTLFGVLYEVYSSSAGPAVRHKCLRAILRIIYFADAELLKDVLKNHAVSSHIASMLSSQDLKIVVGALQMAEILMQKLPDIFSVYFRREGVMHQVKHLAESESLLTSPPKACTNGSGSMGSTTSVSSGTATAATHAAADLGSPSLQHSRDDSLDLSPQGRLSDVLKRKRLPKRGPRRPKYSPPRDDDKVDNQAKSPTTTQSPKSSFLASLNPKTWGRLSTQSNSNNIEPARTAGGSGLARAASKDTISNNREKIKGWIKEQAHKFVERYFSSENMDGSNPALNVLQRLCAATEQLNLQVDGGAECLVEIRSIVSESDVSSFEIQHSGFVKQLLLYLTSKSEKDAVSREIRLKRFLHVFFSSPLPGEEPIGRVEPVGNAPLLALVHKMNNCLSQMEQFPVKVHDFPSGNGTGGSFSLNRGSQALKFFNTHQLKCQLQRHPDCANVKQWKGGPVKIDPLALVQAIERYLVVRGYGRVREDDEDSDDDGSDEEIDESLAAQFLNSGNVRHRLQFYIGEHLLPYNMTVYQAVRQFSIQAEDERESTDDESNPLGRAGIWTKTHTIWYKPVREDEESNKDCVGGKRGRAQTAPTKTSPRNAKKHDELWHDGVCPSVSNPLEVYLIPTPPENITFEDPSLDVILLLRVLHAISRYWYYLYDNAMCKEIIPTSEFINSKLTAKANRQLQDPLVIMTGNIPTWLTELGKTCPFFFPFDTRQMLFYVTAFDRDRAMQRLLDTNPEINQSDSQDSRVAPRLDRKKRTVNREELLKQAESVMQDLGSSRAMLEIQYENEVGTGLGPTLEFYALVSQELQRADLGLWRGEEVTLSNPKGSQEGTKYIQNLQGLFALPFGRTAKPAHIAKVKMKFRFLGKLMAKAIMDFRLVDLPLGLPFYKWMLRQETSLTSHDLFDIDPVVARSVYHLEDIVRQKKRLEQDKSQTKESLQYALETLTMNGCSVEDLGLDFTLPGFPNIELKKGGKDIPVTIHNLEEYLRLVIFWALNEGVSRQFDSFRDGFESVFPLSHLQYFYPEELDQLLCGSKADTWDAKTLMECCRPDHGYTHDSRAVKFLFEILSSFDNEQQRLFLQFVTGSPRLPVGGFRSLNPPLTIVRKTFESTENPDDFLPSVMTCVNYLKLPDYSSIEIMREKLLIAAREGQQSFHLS
# UniProt O15164: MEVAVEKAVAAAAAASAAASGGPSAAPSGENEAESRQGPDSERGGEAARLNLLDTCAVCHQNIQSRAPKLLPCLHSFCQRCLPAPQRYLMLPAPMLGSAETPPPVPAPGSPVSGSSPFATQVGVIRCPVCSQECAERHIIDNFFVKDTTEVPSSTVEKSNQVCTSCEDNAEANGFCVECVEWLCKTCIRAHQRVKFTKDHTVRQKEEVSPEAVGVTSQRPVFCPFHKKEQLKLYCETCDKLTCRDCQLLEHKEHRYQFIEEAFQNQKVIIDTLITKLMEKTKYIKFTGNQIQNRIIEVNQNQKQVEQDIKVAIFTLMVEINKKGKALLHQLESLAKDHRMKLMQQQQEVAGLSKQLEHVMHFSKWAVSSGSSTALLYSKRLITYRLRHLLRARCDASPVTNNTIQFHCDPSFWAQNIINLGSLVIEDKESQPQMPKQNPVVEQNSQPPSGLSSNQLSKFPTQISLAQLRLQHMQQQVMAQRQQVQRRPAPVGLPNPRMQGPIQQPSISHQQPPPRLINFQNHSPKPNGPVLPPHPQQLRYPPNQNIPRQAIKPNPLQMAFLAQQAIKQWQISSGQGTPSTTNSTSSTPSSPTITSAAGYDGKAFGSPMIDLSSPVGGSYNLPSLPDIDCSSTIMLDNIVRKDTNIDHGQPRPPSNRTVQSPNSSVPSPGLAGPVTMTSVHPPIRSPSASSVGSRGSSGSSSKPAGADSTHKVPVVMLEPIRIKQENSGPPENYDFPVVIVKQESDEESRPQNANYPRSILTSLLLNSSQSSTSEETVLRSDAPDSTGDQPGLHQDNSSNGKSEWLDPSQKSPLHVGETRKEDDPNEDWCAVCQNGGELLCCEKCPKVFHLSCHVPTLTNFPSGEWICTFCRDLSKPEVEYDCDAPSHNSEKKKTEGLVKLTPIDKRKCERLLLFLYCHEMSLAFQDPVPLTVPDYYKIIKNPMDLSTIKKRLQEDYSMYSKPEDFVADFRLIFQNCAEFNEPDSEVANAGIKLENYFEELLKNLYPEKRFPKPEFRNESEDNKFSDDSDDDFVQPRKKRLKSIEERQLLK
# UniProt Q9NXH9: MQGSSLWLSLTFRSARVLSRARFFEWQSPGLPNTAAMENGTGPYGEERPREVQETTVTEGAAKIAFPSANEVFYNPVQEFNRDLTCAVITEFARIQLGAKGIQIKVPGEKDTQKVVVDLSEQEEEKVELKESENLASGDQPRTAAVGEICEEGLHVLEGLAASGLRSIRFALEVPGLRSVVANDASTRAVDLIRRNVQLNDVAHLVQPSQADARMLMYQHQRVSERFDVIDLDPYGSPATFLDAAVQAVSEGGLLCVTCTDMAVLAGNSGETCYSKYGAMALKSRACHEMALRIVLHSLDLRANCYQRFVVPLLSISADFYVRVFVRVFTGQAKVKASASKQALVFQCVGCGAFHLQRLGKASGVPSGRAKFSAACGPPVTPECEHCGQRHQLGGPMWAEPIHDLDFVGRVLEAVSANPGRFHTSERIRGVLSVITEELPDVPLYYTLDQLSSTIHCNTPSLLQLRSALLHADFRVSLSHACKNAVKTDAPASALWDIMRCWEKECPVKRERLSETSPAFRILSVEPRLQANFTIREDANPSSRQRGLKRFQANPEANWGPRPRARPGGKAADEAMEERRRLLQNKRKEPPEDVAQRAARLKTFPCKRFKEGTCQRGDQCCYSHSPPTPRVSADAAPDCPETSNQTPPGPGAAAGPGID
# UniProt Q15654: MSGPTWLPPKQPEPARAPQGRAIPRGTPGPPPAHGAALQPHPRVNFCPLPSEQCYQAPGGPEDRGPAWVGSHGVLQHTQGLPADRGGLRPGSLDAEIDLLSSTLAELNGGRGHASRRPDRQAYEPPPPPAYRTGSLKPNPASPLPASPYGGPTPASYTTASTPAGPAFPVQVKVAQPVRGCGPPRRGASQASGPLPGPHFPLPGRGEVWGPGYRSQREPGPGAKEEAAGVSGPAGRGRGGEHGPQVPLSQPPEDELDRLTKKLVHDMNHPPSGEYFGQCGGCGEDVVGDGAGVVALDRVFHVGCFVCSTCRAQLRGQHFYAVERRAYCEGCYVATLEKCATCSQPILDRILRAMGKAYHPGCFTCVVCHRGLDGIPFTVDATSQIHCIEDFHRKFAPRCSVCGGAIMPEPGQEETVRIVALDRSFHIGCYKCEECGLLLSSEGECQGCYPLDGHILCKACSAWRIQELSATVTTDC
# UniProt Q8IZ69: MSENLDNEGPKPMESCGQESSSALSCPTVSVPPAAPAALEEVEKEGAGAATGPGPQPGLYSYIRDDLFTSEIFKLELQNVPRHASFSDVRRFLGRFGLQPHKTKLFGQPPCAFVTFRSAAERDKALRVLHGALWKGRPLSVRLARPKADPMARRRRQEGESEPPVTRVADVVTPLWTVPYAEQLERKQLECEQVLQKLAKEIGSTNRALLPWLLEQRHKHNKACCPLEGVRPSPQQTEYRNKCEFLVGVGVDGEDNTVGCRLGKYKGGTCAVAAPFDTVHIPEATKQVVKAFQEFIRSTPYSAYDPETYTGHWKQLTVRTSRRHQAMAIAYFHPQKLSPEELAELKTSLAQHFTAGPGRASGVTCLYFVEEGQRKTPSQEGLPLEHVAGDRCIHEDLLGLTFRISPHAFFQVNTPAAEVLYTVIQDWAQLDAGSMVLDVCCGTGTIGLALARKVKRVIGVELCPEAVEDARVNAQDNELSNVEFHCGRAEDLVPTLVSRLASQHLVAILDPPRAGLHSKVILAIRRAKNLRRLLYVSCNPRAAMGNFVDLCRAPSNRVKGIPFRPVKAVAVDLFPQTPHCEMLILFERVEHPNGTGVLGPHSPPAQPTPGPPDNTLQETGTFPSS
# UniProt P29144: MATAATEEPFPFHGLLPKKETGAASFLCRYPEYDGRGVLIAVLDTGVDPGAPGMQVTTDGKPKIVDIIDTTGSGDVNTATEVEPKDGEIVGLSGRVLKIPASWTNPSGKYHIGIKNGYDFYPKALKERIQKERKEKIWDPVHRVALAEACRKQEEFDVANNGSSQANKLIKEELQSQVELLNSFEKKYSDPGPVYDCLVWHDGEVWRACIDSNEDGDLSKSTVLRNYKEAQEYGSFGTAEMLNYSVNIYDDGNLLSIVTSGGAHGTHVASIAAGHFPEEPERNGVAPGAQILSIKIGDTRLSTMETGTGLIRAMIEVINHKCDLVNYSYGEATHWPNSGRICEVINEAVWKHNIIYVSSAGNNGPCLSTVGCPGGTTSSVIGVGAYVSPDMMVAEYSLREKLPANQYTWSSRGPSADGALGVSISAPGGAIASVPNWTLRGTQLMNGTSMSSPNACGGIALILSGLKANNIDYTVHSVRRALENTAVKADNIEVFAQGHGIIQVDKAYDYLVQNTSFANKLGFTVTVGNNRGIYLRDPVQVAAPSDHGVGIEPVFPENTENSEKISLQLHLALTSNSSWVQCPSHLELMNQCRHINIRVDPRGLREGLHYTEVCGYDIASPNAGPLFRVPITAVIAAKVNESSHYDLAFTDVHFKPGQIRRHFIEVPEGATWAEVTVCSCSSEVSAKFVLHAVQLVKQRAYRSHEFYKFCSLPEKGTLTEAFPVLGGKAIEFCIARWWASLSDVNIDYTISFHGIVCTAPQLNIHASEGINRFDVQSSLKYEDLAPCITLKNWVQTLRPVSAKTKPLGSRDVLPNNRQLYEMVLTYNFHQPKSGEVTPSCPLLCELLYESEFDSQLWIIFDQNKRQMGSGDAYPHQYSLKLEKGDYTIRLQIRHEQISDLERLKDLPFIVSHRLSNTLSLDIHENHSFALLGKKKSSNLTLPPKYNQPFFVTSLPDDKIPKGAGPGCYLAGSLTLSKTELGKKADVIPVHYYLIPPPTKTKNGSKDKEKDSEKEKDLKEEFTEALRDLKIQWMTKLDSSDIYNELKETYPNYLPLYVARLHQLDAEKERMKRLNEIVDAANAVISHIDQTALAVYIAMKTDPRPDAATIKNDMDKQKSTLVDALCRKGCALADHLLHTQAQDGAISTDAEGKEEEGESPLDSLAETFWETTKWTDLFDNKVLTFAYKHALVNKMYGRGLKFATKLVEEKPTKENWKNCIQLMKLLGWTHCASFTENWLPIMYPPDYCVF
# UniProt Q12899: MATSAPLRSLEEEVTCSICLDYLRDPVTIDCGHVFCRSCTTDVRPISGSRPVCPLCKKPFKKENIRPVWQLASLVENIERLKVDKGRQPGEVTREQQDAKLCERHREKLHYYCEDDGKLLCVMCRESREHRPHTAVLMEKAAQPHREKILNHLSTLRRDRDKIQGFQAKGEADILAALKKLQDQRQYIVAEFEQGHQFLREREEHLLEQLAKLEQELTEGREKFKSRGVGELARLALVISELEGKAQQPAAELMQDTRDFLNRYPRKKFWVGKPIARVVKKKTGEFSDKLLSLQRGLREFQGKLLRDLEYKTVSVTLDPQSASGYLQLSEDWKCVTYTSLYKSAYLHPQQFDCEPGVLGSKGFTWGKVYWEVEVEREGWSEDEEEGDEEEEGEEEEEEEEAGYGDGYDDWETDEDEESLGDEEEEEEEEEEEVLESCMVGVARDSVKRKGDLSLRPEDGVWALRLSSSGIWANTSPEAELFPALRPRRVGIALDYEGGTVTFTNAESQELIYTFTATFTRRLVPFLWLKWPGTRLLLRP
# The list shows a part of the results.
# Compound: Cc1cc(ccc1-c1ccccc1)C(=O)N1CCCN(CC1)C(=O)CCl [compound 10]
# Experiment: probe-labelled cysteine peptide fold change vs DMSO (competition) (log2 fold change); higher = less target engagement (more negative = stronger competition)
# Conditions: 50 µM; THP-1; incubation time: 4 h
# 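Note: competitive profiling in live THP-1 cells: cysteine peptides tagged with an iodoacetamide desthiobiotin (IA-DTB) probe, intensity after compound treatment relative to DMSO-treated cells.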
row,Target,probe-labelled cysteine peptide fold change
1,TPX2_Q9ULW0_301_GCTIVK (UniProt Q9ULW0),0.294
2,TRAPPC9_Q96Q05_179_IPLLCVPFEK (UniProt Q96Q05),0.54
3,TRIP12_Q14669_1538_TCPFFFPFDTR (UniProt Q14669),0.322
4,TRIM24_O15164_223_QKEEVSPEAVGVTSQRPVFCPFHK (UniProt O15164),-0.302
5,TRMT1_Q9NXH9_376_FSAACGPPVTPECEHCGQR (UniProt Q9NXH9),-0.131
6,TRIP6_Q15654_387_GLDGIPFTVDATSQIHCIEDFHRK (UniProt Q15654),-0.0263
7,TRHDE_Q9UKU6_894_ILLEALTCSDDRNLLNR (UniProt Q9UKU6),-0.168
8,TRMT2A_Q8IZ69_270_GGTCAVAAPFDTVHIPEATK (UniProt Q8IZ69),-0.357
9,TRIM24_O15164_882_DLSKPEVEYDCDAPSHNSEK (UniProt O15164),-0.316
10,TPP2_P29144_197_YSDPGPVYDCLVWHDGEVWR (UniProt P29144),0.493
11,TRMT1_Q9NXH9_482_VSLSHACK (UniProt Q9NXH9),-0.206
12,TPRKB_Q9Y3C4_13_MQLTHQLDLFPECR (UniProt Q9Y3C4),0.037
13,TRIM26_Q12899_334_CVTYTSLYK (UniProt Q12899),0.15

# In a second layout: results already given.
row | Target | probe-labelled cysteine peptide fold change
3 | TRIP12_Q14669_1538_TCPFFFPFDTR (UniProt Q14669) | 0.322
5 | TRMT1_Q9NXH9_376_FSAACGPPVTPECEHCGQR (UniProt Q9NXH9) | -0.131
11 | TRMT1_Q9NXH9_482_VSLSHACK (UniProt Q9NXH9) | -0.206
